Reference: US20020119917A1, “ANTI-INFLAMMATORY PEPTIDES DERIVED FROM C-REACTIVE PROTEIN” (priority 1996, published 2002)
For at least one compound, name, drawing or mass did not settle the structure. Residues, ends and D or L forms follow the SMILES beside them. *: point of attachment. X1 = CC(C)C[C@H](NC(=O)[C@@H](N)CS*)C(=O)N[C@@H](Cc1c[nH]cn1)C(=O)N[C@@H](Cc1ccccc1)C(=O)O

Biological target: T1, human leukocyte elastase (hLE) (Homo sapiens, UniProt P08246)
T1 construct: Neutrophils (1.4 billion) were isolated from whole blood obtained from a single healthy laboratory donor; from tissue; host or cells: neutrophils from whole blood of a single healthy donor
T1 sequence (P08246 30-247 limits assumed): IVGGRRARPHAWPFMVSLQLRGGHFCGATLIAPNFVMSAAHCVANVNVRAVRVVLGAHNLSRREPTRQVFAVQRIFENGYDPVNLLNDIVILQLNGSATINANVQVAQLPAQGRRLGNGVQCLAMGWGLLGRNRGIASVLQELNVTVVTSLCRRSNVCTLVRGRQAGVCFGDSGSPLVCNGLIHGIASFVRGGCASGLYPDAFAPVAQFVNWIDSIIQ
Test: In-vitro inhibition of hLE (cleavage of MeOSuc-AAPV-NA)
Format: biochemical
Settings: read-out: hLE Ki; substrate MeOSuc-AAPV-NA, 100 mM Hepes pH 7.4, 37° C.
Experimental: The enzymatic activity was assayed with MeOSuc-AAPV-NA for hLE determination and Suc-AAPF-NA for hCG determination (both in 100 mM Hepes buffer, pH 7.4, containing 0.05% of the […] detergent Brij-35). The activities of the individual enzymatic fractions were 100% free from cross-contamination. […] The fractions containing hLE and hCG were dialyzed each against 0.1% pyridinium acetate, pH 5.3, divided into 20 aliquots, lyophilized, and stored at −20° C. until use.
Peptides were dissolved in 100 mM Hepes buffer pH 7.4 containing 0.1% Brij-35 with 10% DMSO to yield 600 μM solutions, which were used to make further dilutions with the same buffer, and 80 μL aliquots were added in duplicates to 96-well plates. The substrate, 600 or 900 μM MeOSuc-AAPV-NA in the same buffer with 5% DMSO, was added to each well in addition to the blank wells, and the plate was placed in the plate reader equilibrated to 37° C. (Dynateck MR-6000). […]
For hLE, V is determined by fitting a linear equation to the first 6 time-points (10 min) of the kinetics data using the least squares method. […]
The hLE inhibitory capability of CRP-derived peptides was evaluated by inhibiting the enzymatic cleavage of MeOSuc-AAPV-NA as described in Materials and Methods (section v).

Structure (SMILES)	Ki [µM]
CC[C@H](C)[C@H](NC(=O)[C@H](Cc1c[nH]cn1)NC(=O)[C@@H](NC(=O)[C@@H]1CCCN1C(=O)[C@H](C)NC(=O)[C@@H](NC(=O)[C@@H](NC(=O)[C@@H](N)C(C)C)[C@@H](C)O)C(C)C)C(C)C)C(=O)N[C@@H](CSSC[C@H](N)C(=O)N[C@@H](CC(C)C)C(=O)N[C@@H](Cc1c[nH]cn1)C(=O)N[C@@H](Cc1ccccc1)C(=O)O)C(=O)O [Peptide 4, Val89-Thr-Val-Ala-Pro-Val-His-Ile-Cys97-Cys36-His-Leu-Phe39] (H-VTVAPVHIC(X1)-OH)	85 ± 5
CC[C@H](C)[C@H](NC(=O)[C@H](Cc1c[nH]cn1)NC(=O)[C@@H](NC(=O)[C@@H]1CCCN1C(=O)[C@H](C)NC(=O)[C@@H](NC(=O)[C@@H](NC(=O)[C@@H](NC(=O)[C@H](CCC(=O)O)NC(=O)[C@@H]1CCCN1C(=O)[C@@H](NC(=O)[C@H](CCC(=O)O)NC(=O)[C@H](Cc1ccccc1)NC(=O)[C@H](CC(C)C)NC(=O)[C@@H](NC(=O)[C@H](CCC(=O)O)NC(=O)[C@H](CO)NC(=O)CN)[C@@H](C)CC)C(C)C)C(C)C)[C@@H](C)O)C(C)C)C(C)C)C(=O)N[C@@H](CSSC[C@H](N)C(=O)N[C@@H](CC(C)C)C(=O)N[C@@H](Cc1c[nH]cn1)C(=O)N[C@@H](Cc1ccccc1)C(=O)O)C(=O)O [Peptide 5, Gly79-Ser-Glu-Ile-Leu-Phe-Glu-Val-Pro-Glu-Val-Thr-Val-Ala-Pro-Val-His-Ile-Cys97-Cys36-His-Leu-Phe39] (H-GSEILFEVPEVTVAPVHIC(X1)-OH)	55 ± 5
